Measurements from publication doi:10.1101/2023.08.18.553817.
Results are given in words; binding and its absence hold for the method and conditions named. Binding seen in cells or lysates may run through a third protein. Some entries that bind do so weakly or less than the wild type.

Amino acid sequences for entries named in this document (tags omitted). A change or cut given only in a name is not applied to a line headed by its entry. Chains listed by the source or under a name are the forms on record and can include a tag or linker. Residues count along the entry.
FLAG-TAX1BP1^CC1 (WT) (Q86VP1, residues 147-343): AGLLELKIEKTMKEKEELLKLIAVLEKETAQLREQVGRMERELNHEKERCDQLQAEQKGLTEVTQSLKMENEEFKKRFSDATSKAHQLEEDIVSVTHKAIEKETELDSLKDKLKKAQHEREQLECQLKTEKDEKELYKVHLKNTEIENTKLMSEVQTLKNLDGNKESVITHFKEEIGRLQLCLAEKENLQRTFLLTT
FLAG-TAX1BP1^CC1 (K248E) (Q86VP1, form named): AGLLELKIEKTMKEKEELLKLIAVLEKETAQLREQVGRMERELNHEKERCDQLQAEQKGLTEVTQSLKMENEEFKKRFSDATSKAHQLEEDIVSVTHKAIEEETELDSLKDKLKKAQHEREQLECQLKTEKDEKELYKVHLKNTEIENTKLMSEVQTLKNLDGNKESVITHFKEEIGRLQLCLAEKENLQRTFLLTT

B1: SCAMP3 (protein, UniProt O14828 1-347)
chain: MAQSRDGGNPFAEPSELDNPFQDPAVIQHRPSRQYATLDVYNPFETREPPPAYEPPAPAPLPPPSAPSLQPSRKLSPTEPKNYGSYSTQASAAAATAELLKKQEELNRKAEELDRRERELQHAALGGTATRQNNWPPLPSFCPVQPCFFQDISMEIPQEFQKTVSTMYYLWMCSTLALLLNFLACLASFCVETNNGAGFGLSILWVLLFTPCSFVCWYRPMYKAFRSDSSFNFFVFFFIFFVQDVLFVLQAIGIPGWGFSGWISALVVPKGNTAVSVLMLLVALLFTGIAVLGIVMLKRIHSLYRRTGASFQKAQQEFAAGVFSNPAVRTAAANAAAGAAENAFRAP
B2: ATG9A (protein, UniProt Q7Z3C6 1-839)
chain: MAQFDTEYQRLEASYSDSPPGEEDLLVHVAEGSKSPWHHIENLDLFFSRVYNLHQKNGFTCMLIGEIFELMQFLFVVAFTTFLVSCVDYDILFANKMVNHSLHPTEPVKVTLPDAFLPAQVCSARIQENGSLITILVIAGVFWIHRLIKFIYNICCYWEIHSFYLHALRIPMSALPYCTWQEVQARIVQTQKEHQICIHKRELTELDIYHRILRFQNYMVALVNKSLLPLRFRLPGLGEAVFFTRGLKYNFELILFWGPGSLFLNEWSLKAEYKRGGQRLELAQRLSNRILWIGIANFLLCPLILIWQILYAFFSYAEVLKREPGALGARCWSLYGRCYLRHFNELEHELQSRLNRGYKPASKYMNCFLSPLLTLLAKNGAFFAGSILAVLIALTIYDEDVLAVEHVLTTVTLLGVTVTVCRSFIPDQHMVFCPEQLLRVILAHIHYMPDHWQGNAHRSQTRDEFAQLFQYKAVFILEELLSPIVTPLILIFCLRPRALEIIDFFRNFTVEVVGVGDTCSFAQMDVRQHGHPQWLSAGQTEASVYQQAEDGKTELSLMHFAITNPGWQPPRESTAFLGFLKEQVQRDGAAASLAQGGLLPENALFTSIQSLQSESEPLSLIANVVAGSSCRGPPLPRDLQGSRHRAEVASALRSFSPLQPGQAPTGRAHSTMTGSGVDARTASSGSSVWEGQLQSLVLSEYASTEMSLHALYMHQLHKQQAQAEPERHVWHRRESDESGESAPDEGGEGARAPQSIPRSASYPCAAPRPGAPETTALHGGFQRRYGGITDPGTVPRVPSHFSRLPLGGWAEDGQSASRHPEPVPEEGSEDELPPQVHKV

Legend:
[1] = target: FLAG-TAX1BP1^CC1 (WT) (human) (UniProt Q86VP1); experiment: co-IP
[2] = target: FLAG-TAX1BP1^CC1 (K248E) (human) (UniProt Q86VP1); experiment: co-IP

Binder | binding [1] | binding [2]
B1 | binds | –
B2 | no binding | no binding
